Measured values taken from the supplement of paper PMC9433722.
Where a name gives a salt, the structure may show the parent alone. Some of the results follow. Single values are uncertain, as repeats are few or missing.

Test system: Saos-2
Assay: cell viability (CCK-8) relative to DMSO control (% of control); higher = less cytotoxic
Settings: 10 µM; 48 h

Row | Compound | cell viability
1 | CC(=O)Nc1nnc(S(N)(=O)=O)s1 [Acetazolamide] | 95
2 | CC(c1cc2ccccc2s1)N(O)C(N)=O (stereo not drawn) [Zileuton] | 63.4
3 | CN(C)CCCN1c2ccccc2CCc2ccc(Cl)cc21 [Clomipramine·HCl] | 104
4 | NC1=NCC2c3ccccc3Cc3ccccc3N12 (stereo not drawn) [Epinastine·HCl] | 113
5 | CC(C)c1nc(CN(C)C(=O)N[C@H](C(=O)N[C@@H](Cc2ccccc2)C[C@H](O)[C@H](Cc2ccccc2)NC(=O)OCc2cncs2)C(C)C)cs1 [Ritonavir] | 107
6 | CN/C(=N\CCSCc1nc[nH]c1C)NC#N [Cimetidine] | 60.2
7 | NC[C@H]1O[C@H](O[C@H]2[C@H](O)[C@@H](O[C@H]3O[C@H](CO)[C@@H](O)[C@H](N)[C@H]3O)[C@H](N)C[C@@H]2N)[C@H](N)C[C@@H]1O [Tobramycin] | 68.2
8 | CCCCCCCCc1ccc(CCC(N)(CO)CO)cc1 | 15.1
9 | CCCCNc1cc(C(=O)O)cc(S(N)(=O)=O)c1Oc1ccccc1 [Bumetanide] | 59.5
10 | CN1C(=O)CC(C)(c2ccccc2)C1=O (stereo not drawn) [Methsuximide] | 100
11 | O=c1[nH]c(=O)n([C@H]2C[C@H](O)[C@@H](CO)O2)cc1F [Floxuridine] | 38.7
12 | CCN(CC)C(=O)/C(C#N)=C/c1cc(O)c(O)c([N+](=O)[O-])c1 [Entacapone] | 54.2
13 | Cc1[nH]cnc1CN1CCc2c(c3ccccc3n2C)C1=O [Alosetron·HCl] | 101
14 | CCC(=O)O[C@]1(C(=O)SCF)[C@H](C)C[C@H]2[C@@H]3C[C@H](F)C4=CC(=O)C=C[C@]4(C)[C@@]3(F)[C@@H](O)C[C@@]21C [Fluticasone Propionate] | 99
15 | CCc1cc(C(N)=S)ccn1 [Ethionamide] | 109
16 | CO/N=C(\C(=O)N[C@@H]1C(=O)N2C(C(=O)O)=C(COC(C)=O)CS[C@H]12)c1csc(N)n1 [Cefotaxime Acid] | 67.3
17 | CO/N=C(\C(=O)N[C@@H]1C(=O)N2C(C(=O)[O-])=C(C[N+]3(C)CCCC3)CS[C@H]12)c1csc(N)n1 [Cefepime·2HCl Hydrate] | 59.4
18 | CN(C)CCc1c[nH]c2ccc(CS(=O)(=O)N3CCCC3)cc12 [Almotriptan malate] | 106
19 | NC(=O)N[C@@H](CCC(=O)O)C(=O)O [Carglumic Acid] | 119

Row | Compound | cell viability
20 | CCCCCOC(=O)Nc1nc(=O)n([C@@H]2O[C@H](C)[C@@H](O)[C@H]2O)cc1F [Capecitabine] | 67.8
21 | NC(=O)Cc1cccc(C(=O)c2ccccc2)c1N [Nepafenac] | 110
22 | CCCC(=O)O[C@]1(C(=O)COC(C)=O)CC[C@H]2[C@@H]3C[C@H](F)C4=CC(=O)C=C[C@]4(C)[C@@]3(F)[C@@H](O)C[C@@]21C [Difluprednate] | 116
23 | CN1CC(=O)N2[C@H](c3ccc4c(c3)OCO4)c3[nH]c4ccccc4c3C[C@@H]2C1=O [Tadalafil] | 109
24 | CCN(CC)CCCC(C)Nc1ccnc2cc(Cl)ccc12 (stereo not drawn) [Chloroquine Diphosphate] | 61.2
25 | Cc1nccn1CC1CCc2c(c3ccccc3n2C)C1=O (stereo not drawn) [Ondansetron] | 63.5
26 | COC(=O)C1=C(C)NC(C)=C(C(=O)OCCN(C)Cc2ccccc2)C1c1cccc([N+](=O)[O-])c1 (stereo not drawn) [Nicardipine . hydrochloride] | 64.7
27 | Cc1cc(C)cc(OCC2CNC(=O)O2)c1 (stereo not drawn) [Metaxalone] | 98.1
28 | CCCc1nc(C)c2c(=O)nc(-c3cc(S(=O)(=O)N4CCN(CC)CC4)ccc3OCC)[nH]n12 [Vardenafil] | 65.1
29 | COc1cc2ncnc(Nc3ccc(F)c(Cl)c3)c2cc1OCCCN1CCOCC1 [Gefitinib] | 49.1
30 | CC(C)c1ccc2oc3nc(N)c(C(=O)O)cc3c(=O)c2c1 [Amlexanox] | 122
31 | CS(=O)(=O)OCCCCOS(C)(=O)=O [Busulfan] | 115
32 | CC(C)(C)NC[C@H](O)COc1cccc2c1CCCC2=O [Levobunolol·HCl] | 112
33 | CC(=O)O[C@H]1C[C@@H]2CC[C@@H]3[C@H](CC[C@@]4(C)[C@H]3C[C@H]([N+]3(C)CCCCC3)[C@@H]4OC(C)=O)[C@@]2(C)C[C@@H]1N1CCCCC1 [Vecuronium Bromide] | 59.7
34 | CC[C@]1(O)C[C@@H]2CN(CCc3c([nH]c4ccccc34)[C@@](C(=O)OC)(c3cc4c(cc3OC)N(C)[C@H]3[C@@](O)(C(=O)OC)[C@H](OC(C)=O)[C@]5(CC)C=CCN6CC[C@]43[C@@H]65)C2)C1 [Vinblastine . sulfate] | 33.1
35 | CC(C)[C@H](N)C(=O)OCCOCn1cnc2c(=O)nc(N)[nH]c21 [Valacyclovir·HCl] | 61.2
36 | CN(C)CCc1c[nH]c2ccc(C[C@H]3COC(=O)N3)cc12 [Zolmitriptan] | 60.5
37 | CCOc1ccccc1OCCN[C@H](C)Cc1ccc(OC)c(S(N)(=O)=O)c1 [Tamsulosin·HCl] | 65
38 | CC(C)(C)NC[C@H](O)c1ccc(O)c(CO)c1 [Levalbuterol·HCl] | 105

Copied from the list:
For cell viability, `CO/N=C(\C(=O)N[C@@H]1C(=O)N2C(C(=O)[O-])=C(C[N+]3(C)CCCC3)CS[C@H]12)c1csc(N)n1` [Cefepime·2HCl Hydrate] has the entry 59.4
For cell viability, `CC[C@]1(O)C[C@@H]2CN(CCc3c([nH]c4ccccc34)[C@@](C(=O)OC)(c3cc4c(cc3OC)N(C)[C@H]3[C@@](O)(C(=O)OC)[C@H](OC(C)=O)[C@]5(CC)C=CCN6CC[C@]43[C@@H]65)C2)C1` [Vinblastine . sulfate] has the entry 33.1
